# In PubChem BioAssay AID2685 (National Center for Advancing Translational Sciences (NCATS), 2010):
# This is one part of the list. Shown are side measurements of this screen, not its main read-out; they come without a call. The list favours compounds with an active or inconclusive main result. Potencies come from curve fits of mixed quality, noted in brackets.
# Test: qHTS Assay for Lipid Storage Modulators in Drosophila S3 Cells;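 for cell number change: cells counted by Cell Tracker Red CMTPX staining in the red channel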
# Conditions: BODIPY lipid droplet fluorescence, 18-24 h; for cell number change: measured here: cell count max response, cells fed with added oleic acid
# Summary of the method: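 Drosophila S3 cells got compounds at several concentrations plus oleic acid (400 uM solution). Laser-scanning cytometry with 488 nm excitation read lipid droplets at 500-530 nm and cells at 575-640 nm. Percent activity was relative to 20 uM Triacsin C.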
# [1] = measured here: cell number channel AC50, cells fed with added oleic acid
# [2] = measured here: lipid fluorescence (Fed channel) AC50, cells fed with added oleic acid
Compound,cell number change,AC50 [1],AC50 [2]
Cc1cc(=O)n2[nH]c(-c3ccco3)nc2n1,-121%,"0.116 µM [falling, full curve, poor fit]",–
Cc1ccnc(NS(=O)(=O)c2ccc(NC(=O)CN3C(=O)c4ccccc4S3(=O)=O)cc2)n1,-20.5%,–,"13 µM [falling, partial curve, poor fit]"
CCc1ccccc1NC(=O)NNS(=O)(=O)c1cc(C)ccc1C,18.7%,–,"35.5 µM [rising, single point]"
COc1ccc(-c2sc3ccc(N4CCOCC4)cc3c2C#CC(C)(C)O)cc1,-11.5%,"0.146 µM [falling, single point]",–
O=C1C=C(c2cccc3c2sc2ccccc23)C[C@@H](c2ccc(Cl)cc2)C1,-3.62%,–,–
COc1ccc(NC(=O)C2CCCN(S(C)(=O)=O)C2)c(OC)c1 (stereo not given),3.22%,–,–
CC1CN=C(N(Cc2ccccc2)C(=O)Nc2ccccc2)S1 (stereo not given),-83.4%,"29.1 µM [falling, single point]","2.59 µM [falling, full curve]"
Cc1nc(-c2ccccc2)nc(Cl)c1Cl,-49.9%,"32.6 µM [falling, single point]","18.4 µM [falling, single point]"
CCOC(=O)c1c(C)c(C(=O)Nc2ccc3c(c2)OCCO3)c(C)n1CC,3.93%,–,"0.411 µM [rising, full curve, poor fit]"
CCOC(=O)c1sc(=S)n(CC)c1NC(=O)c1ccccc1C,4.06%,–,–
CCOC(=O)c1ccc(NC(=O)Cn2cccc2)cc1,36.2%,"7.31 µM [rising, partial curve]",–
Cc1ccccc1/C=C/C12NC(=O)CN1c1ccccc1C2(C)C (stereo not given),2.34%,–,–
CCC(CC)C(=O)Nc1ccccc1NC(C)=O,-19.9%,–,"0.0461 µM [rising, full curve, poor fit]"
CCOc1cc(C(=O)Nc2ccc(C)cc2O)ccc1OCC(=O)N1CCOCC1,21%,–,–
CCC[C@H]1COCCS(=O)(=O)N1Cc1ccccc1,16.5%,–,"6.51 µM [rising, single point]"
COc1ccc(Cl)cc1NC(=O)NC1CCCCC1,-3.01%,–,–
COc1ccc(-n2nc(C(=O)NCC(=O)NC3CCCC(C)C3C)c3ccccc3c2=O)c(OC)c1 (stereo not given),177%,"29.1 µM [rising, single point]","29.1 µM [rising, single point]"
O=c1ccc2ccc(O[C@@H]3O[C@H](CO)[C@@H](O)[C@H](O)[C@H]3O)c(O)c2o1,-26.2%,"0.0058 µM [falling, full curve, poor fit]","3.66 µM [rising, partial curve]"
Clc1ccccc1COc1ccccc1-c1nnco1,-1.91%,–,–
O=C1NC(c2ccc(F)cc2)Oc2ccccc21 (stereo not given),-9.45%,–,"0.164 µM [rising, full curve, poor fit]"
CCN(CC)S(=O)(=O)c1ccc(Cl)c(NC(=O)c2ccccc2C)c1,-31.2%,–,"20.6 µM [falling, partial curve, poor fit]"

# Among those listed so far, two have two or more sulfur atoms.
Compound,cell number change,AC50 [1],AC50 [2]
Cc1ccnc(NS(=O)(=O)c2ccc(NC(=O)CN3C(=O)c4ccccc4S3(=O)=O)cc2)n1,-20.5%,–,"13 µM [falling, partial curve, poor fit]"
CCOC(=O)c1sc(=S)n(CC)c1NC(=O)c1ccccc1C,4.06%,–,–

# Additional results follow:

Compound,cell number change,AC50 [1],AC50 [2]
Cc1sc(NC(=O)C2=COCCO2)nc1-c1ccc(Br)cc1,7.98%,–,–
COc1ccc([N+](=O)[O-])cc1NC(=O)COC(=O)/C=C/c1ccco1,–,–,"16.4 µM [rising, partial curve, poor fit]"
O=C(C1CSC2(c3ccc(F)cc3)CCC(=O)N12)N1CCCCCC1 (stereo not given),–,–,"10.3 µM [falling, partial curve]"
O=[N+]([O-])c1cc(-c2ccc(/C=N\n3cnnc3)o2)cc([N+](=O)[O-])c1,-17.9%,–,"0.082 µM [falling, full curve, poor fit]"
COc1ccc(OC)c(/C=N/NC2=NS(=O)(=O)c3ccccc32)c1,-15.3%,–,–
CCOC(=O)CNC(=O)C(NC(=O)C1CCC(C)CC1)C(C)CC (stereo not given),-21.5%,"0.103 µM [falling, partial curve, poor fit]","1.03 µM [falling, full curve]"
COc1ccc(CC(=O)OCC(=O)NCc2ccccc2Cl)cc1,-21%,–,–
CCN(CC(=O)Nc1ccc(C)c(S(=O)(=O)N2CCOCC2)c1)Cc1ccccc1,–,"2.31 µM [rising, partial curve]",–
COc1cc2c(cc1OC)C(c1ccccc1)N(C(=O)c1ccco1)CC2 (stereo not given),-5.06%,–,"6.51 µM [rising, single point]"
CC(=O)c1ccc(S(=O)(=O)N2CCCC2)cc1,-30.8%,"18.4 µM [falling, single point]","29.1 µM [falling, single point]"
O=C(O)c1cccc(OCc2ccccc2Cl)c1,-0.452%,"5.8 µM [falling, single point]","6.51 µM [falling, single point]"
O=C(CCC1COc2ccccc2O1)Nc1ccc(Cl)cn1 (stereo not given),-14.4%,–,"0.259 µM [falling, full curve, poor fit]"
COc1ccc(/C=N/OCC(=O)N2CCCC2)c(OC)c1,20.2%,–,"23.1 µM [rising, single point]"
CCCNC(=O)c1ccc2c(=O)c(O)c(-c3ccsc3)[nH]c2c1,-3.61%,"6.51 µM [falling, single point]",–
O=C(N/C(=C/c1cccs1)C(=O)N1CCOCC1)c1cccs1,-30.4%,–,–
CN(Cc1ccccc1)C(=O)CSc1nc2ccccc2[nH]1,51.6%,"29.1 µM [rising, single point]","29.1 µM [rising, single point]"
Cc1c(Cl)cccc1NC(=O)COC(=O)c1c2c(nc3ccccc13)CCN(Cc1ccccc1)C2,-11.9%,–,–
CN(C(=O)c1ccc(NC(=O)Cc2ccc(NC(=O)C3CCCN(C(=O)C4CCC4)C3)cc2)cc1)C1CC1 (stereo not given),-39.2%,"29.1 µM [falling, single point]","4.61 µM [falling, single point]"
Cc1cccnc1NC(=O)CCn1c(=O)oc2ccccc21,-43.6%,"23.1 µM [falling, partial curve]",–
Cc1c(NC(=O)CC2NC(=O)NC2=O)c(=O)n(-c2ccccc2)n1C (stereo not given),-14%,–,–
